According to PubChem BioAssay (EPA / NIEHS):
This list was built around the results that the source calls inconclusive (neither active nor inactive); the mix of calls is not that of the screen. For some of these results: Potencies of inconclusive entries are doubtful fits and often do not repeat. Active and inactive are the calls of the source. How the source made its calls: active means hit-call score of the fitted dose curve at least 0.9, where 1 is the maximum; inconclusive means response in the unintended direction; inactive means score below 0.9.

Sequences of proteins named here, by UniProt entry; tags and fusion partners are left off. A change or cut given only in a name is not applied to a line headed by its entry.
UniProt Q96RI1: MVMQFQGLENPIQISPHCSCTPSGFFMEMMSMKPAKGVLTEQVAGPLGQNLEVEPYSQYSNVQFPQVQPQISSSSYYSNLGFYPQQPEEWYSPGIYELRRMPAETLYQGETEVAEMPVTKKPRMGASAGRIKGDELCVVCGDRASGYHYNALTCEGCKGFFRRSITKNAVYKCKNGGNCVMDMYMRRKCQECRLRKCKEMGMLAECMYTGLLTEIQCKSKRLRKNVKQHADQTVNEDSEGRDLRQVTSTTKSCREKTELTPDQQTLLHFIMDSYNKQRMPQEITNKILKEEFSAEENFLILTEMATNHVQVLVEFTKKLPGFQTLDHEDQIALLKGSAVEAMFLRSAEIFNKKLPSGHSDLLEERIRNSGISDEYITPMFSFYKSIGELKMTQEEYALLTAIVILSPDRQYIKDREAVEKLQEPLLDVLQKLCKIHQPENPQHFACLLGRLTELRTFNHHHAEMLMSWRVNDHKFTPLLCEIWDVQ
UniProt P37231: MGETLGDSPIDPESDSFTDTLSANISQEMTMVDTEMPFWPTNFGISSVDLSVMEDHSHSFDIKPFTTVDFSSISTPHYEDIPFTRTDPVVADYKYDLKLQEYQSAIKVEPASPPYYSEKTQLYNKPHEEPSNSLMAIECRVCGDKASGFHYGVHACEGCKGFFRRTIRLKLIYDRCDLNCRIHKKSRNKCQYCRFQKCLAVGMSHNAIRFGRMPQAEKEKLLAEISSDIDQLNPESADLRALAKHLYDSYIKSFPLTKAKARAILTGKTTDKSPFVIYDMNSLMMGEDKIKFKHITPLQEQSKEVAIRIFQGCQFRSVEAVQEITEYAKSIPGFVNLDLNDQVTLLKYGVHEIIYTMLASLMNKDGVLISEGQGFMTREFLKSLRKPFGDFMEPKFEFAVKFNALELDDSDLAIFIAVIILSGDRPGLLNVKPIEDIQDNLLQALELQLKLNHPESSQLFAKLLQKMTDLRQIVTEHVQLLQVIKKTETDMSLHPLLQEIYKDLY
UniProt O75469: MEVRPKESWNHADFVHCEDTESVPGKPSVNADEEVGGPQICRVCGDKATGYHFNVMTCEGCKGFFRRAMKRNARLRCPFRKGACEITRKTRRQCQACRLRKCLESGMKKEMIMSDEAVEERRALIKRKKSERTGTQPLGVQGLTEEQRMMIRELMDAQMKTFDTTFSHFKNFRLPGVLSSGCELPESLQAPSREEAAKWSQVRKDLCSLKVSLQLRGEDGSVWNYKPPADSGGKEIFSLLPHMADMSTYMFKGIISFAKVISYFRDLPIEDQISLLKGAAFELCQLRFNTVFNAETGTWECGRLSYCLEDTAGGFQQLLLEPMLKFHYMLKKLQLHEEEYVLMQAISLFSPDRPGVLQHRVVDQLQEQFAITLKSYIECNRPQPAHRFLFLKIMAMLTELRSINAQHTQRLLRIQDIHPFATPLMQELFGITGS
UniProt P19793: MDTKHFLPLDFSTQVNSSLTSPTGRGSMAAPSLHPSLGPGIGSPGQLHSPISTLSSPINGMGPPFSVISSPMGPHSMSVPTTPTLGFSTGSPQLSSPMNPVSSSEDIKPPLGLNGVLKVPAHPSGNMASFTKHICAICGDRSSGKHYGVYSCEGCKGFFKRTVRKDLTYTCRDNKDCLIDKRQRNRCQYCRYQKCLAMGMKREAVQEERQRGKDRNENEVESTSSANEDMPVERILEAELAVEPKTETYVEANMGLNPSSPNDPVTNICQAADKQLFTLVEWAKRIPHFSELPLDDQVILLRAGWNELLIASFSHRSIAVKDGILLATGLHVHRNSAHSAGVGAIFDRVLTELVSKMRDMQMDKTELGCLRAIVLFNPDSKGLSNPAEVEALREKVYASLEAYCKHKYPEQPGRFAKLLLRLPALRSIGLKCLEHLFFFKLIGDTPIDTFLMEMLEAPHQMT
UniProt P04637, whole entry, looked up: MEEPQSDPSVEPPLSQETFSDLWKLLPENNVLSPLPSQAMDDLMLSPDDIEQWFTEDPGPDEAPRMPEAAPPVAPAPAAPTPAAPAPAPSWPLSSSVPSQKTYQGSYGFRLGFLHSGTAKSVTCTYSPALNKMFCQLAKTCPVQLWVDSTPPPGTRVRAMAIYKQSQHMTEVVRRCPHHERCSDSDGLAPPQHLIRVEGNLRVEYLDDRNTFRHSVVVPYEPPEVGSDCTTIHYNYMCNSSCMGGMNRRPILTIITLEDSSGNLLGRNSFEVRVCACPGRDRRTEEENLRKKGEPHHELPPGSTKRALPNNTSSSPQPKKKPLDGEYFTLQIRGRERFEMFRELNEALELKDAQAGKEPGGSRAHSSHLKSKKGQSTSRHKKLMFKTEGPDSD
UniProt Q03181: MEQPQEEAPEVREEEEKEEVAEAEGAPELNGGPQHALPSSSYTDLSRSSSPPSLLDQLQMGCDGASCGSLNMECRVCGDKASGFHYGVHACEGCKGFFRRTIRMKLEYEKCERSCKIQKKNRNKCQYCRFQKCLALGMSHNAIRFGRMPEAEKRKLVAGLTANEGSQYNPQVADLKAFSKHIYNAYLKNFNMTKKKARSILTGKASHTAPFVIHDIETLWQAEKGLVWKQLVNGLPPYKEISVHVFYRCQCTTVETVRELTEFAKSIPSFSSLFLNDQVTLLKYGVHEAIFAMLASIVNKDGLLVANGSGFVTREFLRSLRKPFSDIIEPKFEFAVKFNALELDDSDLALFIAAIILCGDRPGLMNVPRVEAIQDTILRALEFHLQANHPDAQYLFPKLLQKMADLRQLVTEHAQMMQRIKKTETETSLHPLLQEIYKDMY
UniProt P04150: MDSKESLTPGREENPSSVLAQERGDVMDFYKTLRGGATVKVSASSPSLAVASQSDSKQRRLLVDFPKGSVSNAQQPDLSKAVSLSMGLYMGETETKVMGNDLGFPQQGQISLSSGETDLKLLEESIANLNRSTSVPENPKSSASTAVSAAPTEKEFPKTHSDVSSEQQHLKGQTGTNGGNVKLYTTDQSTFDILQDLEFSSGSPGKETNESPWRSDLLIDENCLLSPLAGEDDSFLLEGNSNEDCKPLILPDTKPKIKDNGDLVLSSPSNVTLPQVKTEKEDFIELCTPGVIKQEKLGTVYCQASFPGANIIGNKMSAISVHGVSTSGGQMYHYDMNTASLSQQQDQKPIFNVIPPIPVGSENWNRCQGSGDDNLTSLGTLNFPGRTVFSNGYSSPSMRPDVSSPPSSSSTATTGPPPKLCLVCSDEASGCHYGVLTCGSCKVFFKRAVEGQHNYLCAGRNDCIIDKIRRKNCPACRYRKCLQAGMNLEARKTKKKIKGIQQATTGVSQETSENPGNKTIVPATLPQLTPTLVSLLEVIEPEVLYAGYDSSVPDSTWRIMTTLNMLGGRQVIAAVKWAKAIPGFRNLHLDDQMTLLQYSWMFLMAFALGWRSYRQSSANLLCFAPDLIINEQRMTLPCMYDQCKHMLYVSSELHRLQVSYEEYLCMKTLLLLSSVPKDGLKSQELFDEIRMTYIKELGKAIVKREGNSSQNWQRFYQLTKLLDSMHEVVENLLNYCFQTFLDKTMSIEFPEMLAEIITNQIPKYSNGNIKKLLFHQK

Assays:
[1] = target: Bile acid receptor (Homo sapiens) (UniProt Q96RI1); experiment: ATG_FXR_TRANS: Attagene TRANS-FACTORIAL HepG2 Assay for Farnesoid X Receptor (FXR) (AID 2282979); conditions: HepG2 Attagene TRANS FXR-GAL4 reporter transcription;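 further: hits raise reporter mRNA above DMSO so AC50 marks FXR activation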
In short: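 HepG2 cells were transiently transfected with GAL4-UAS reporters driven by chimeric NR-Gal4 proteins and dosed for 24 h. Reporter mRNA was quantified by RT-PCR, fluorescent labelling, HpaI digestion and capillary electrophoresis, with gain of signal scored versus DMSO.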

[2] = ATG_M_06_TRANS: Attagene TRANS-FACTORIAL HepG2 Assay for M06 Transcription Factor (Internal Marker) (AID 2282983); conditions: HepG2 Attagene TRANS M06 internal marker reporter;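 on AC50: potency for rise in reporter mRNA above DMSO baseline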
In short: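 HepG2 cells transiently transfected with GAL4-UAS multiple reporter units, dosed 24 h. Reporter RNA reverse-transcribed, PCR-amplified, 6-FAM-labeled, HpaI-digested and quantified by capillary electrophoresis; this internal-marker signal fitted upward relative to DMSO.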

[3] = target: Peroxisome proliferator-activated receptor gamma (Homo sapiens) (UniProt P37231); experiment: ATG_PPARg_TRANS: Attagene TRANS-FACTORIAL HepG2 Assay for human Peroxisome Proliferator-activated Receptor-gamma (PPARg) (AID 2283007)
In short: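 Multiplexed reporter transcription units in HepG2, 24 h dosing, reporter transcripts quantified by fluorescent RT-PCR and capillary electrophoresis. Increase over DMSO scored.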

[4] = target: Nuclear receptor subfamily 1 group I member 2 (Homo sapiens) (UniProt O75469); experiment: ATG_PXR_TRANS: Attagene TRANS-FACTORIAL HepG2 Assay for human Pregnane X Receptor (PXR) (AID 2283008)
In short: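 HepG2 cells transiently transfected with GAL4-UAS reporter units and PXR-Gal4 chimera, exposed 24 h. Reporter mRNA quantified by RT-PCR, fluorescent labelling, HpaI digestion and capillary electrophoresis; gain of signal vs DMSO.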

[5] = target: Retinoic acid receptor RXR-alpha (Homo sapiens) (UniProt P19793); experiment: OT_NURR1_NURR1RXRa_0480: Odyssey Thera (OT) 8-hour HEK293T Protein Complementation Assay for Nurr1/retinoid X receptor (RXR) (AID 2283385)
In short: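 HEK293T cells expressing Nurr1 and RXRα fused to reporter fragments were dosed with compound for 8 hours. Complex formation was read as fluorescence intensity and analysed as gain of signal against DMSO as baseline.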

[6] = target: Cellular tumor antigen p53 (Homo sapiens) (UniProt P04637); experiment: TOX21_p53_BLA_p5_ratio: Tox21 HCT-116 p53 Agonism Beta-lactamase Assay, Ratio, Phase 5 (AID 2283599)
In short: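 HCT-116 cells carrying a p53-inducible beta-lactamase reporter were seeded at 4000 cells/well and dosed after 5 h with compound in DMSO (217-fold dilution). After 16 h at 37C, CCF4-AM substrate was added for 2 h, and the 460/530 nm emission ratio was scored as gain-of-signal versus DMSO.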

[7] = target: Cellular tumor antigen p53 (Homo sapiens) (UniProt P04637); experiment: TOX21_p53_BLA_p4_ratio: Tox21 HCT-116 p53 Agonism Beta-lactamase Assay, Ratio, Phase 4 (AID 2283601)
In short: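 HCT116 cells carrying an inducible beta-lactamase reporter were plated at 4000 cells/well, rested 5 h, then exposed to compounds in DMSO (217-fold dilution) for 16 h at 37C. CCF4-AM substrate was loaded 2 h at room temperature; 460/530 nm emission ratio scored gain-of-signal versus DMSO.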

[8] = ACEA_ER_AUC_viability: ACEA Biosciences xCELLigence Real-Time Cell Analysis on Estrogen Receptor Agonism for Viability (AID 2283782);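 further: continuous compound exposure with impedance area under curve over 80 h; hit means loss of impedance signal meaning reduced cell growth or viability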
In short: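 T-47D human breast cells in phenol red-free RPMI1640 with 10% charcoal-stripped FBS were dosed with an 8-point 1:4 dilution series from 100 uM top final concentration, in duplicate. Impedance-based growth was followed for 80 h; AUC analysed versus DMSO.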

[9] = TOX21_p53_BLA_p4_viability: Viability Assessment in the Tox21 HCT-116 p53 Agonism Beta-lactamase Assay, Phase 4 (AID 2283597);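 further: hits lower the luminescence signal meaning cytotoxicity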
In short: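 HCT-116 p53-bla cells, 4000/well, dosed after 5 h attachment and incubated 16 h at 37 °C, 5% CO2. Viability from CellTiter-Glo ATP luminescence after 30 min at room temperature, taken after the beta-lactamase read; loss of signal indicates cytotoxicity.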

[10] = TOX21_p53_BLA_p5_viability: Viability Assessment in the Tox21 HCT-116 p53 Agonism Beta-lactamase Assay, Phase 5 (AID 2283600)
In short: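 HCT-116 p53 beta-lactamase reporter cells, 4000/well, were exposed to compound (pin transfer, 217-fold dilution) for 16 hours at 37C. Cellular ATP was read by CellTiter-Glo luminescence after 30 min at room temperature.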

[11] = target: human Peroxisome Proliferator-activated Receptor delta (PPARd), PPARD (gene 5467) (UniProt Q03181); experiment: ATG_PPARd_TRANS: Attagene TRANS-FACTORIAL HepG2 Assay for human Peroxisome Proliferator-activated Receptor delta (PPARd) (AID 2283002)
In short: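 Measured quantity: GAL4-UAS reporter transcript induction in HepG2 after 24 h chemical dosing, with NR-Gal4 chimeras supplied by transient transfection. Detection by RT-PCR and capillary electrophoresis; upward fit against DMSO.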

[12] = target: Retinoic acid receptor RXR-alpha (Homo sapiens) (UniProt P19793); experiment: OT_NURR1_NURR1RXRa_1440: Odyssey Thera (OT) 24-hour HEK293T Protein Complementation Assay for Nurr1/retinoid X receptor (RXR) (AID 2283386)
In short: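 HEK293T cells were dosed with compound and read 24 h later by fluorescence intensity in a protein-fragment complementation format, where Nurr1–RXRα interaction reconstitutes a split reporter. Activity was fitted as gain of signal relative to DMSO baseline.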

[13] = ATG_XTT_Cytotoxicity: Cytotoxicity Assessment in the Attagene TRANS-FACTORIAL HepG2 Assay (AID 2283584);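 further: XTT signal for cell number as viability in transfected HepG2 cells; cells exposed to compound for 24 h before reading; active means loss of viability signal versus DMSO baseline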
In short: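 HepG2 cells transiently transfected with GAL4-UAS multiple reporter units, dosed 24 h; cytotoxicity read by XTT as loss of signal versus DMSO baseline.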

[14] = target: Cellular tumor antigen p53 (Homo sapiens) (UniProt P04637); experiment: TOX21_p53_BLA_p3_ratio: Tox21 HCT-116 p53 Agonism Beta-lactamase Assay, Ratio, Phase 3 (AID 2283596)
In short: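 HCT116 p53-bla cells (4000/well) given compound in DMSO (217-fold dilution) after 5 h, incubated 16 h at 37C. CCF4-AM substrate 2 h at room temperature; 460/530 nm emission ratio, gain fitted against DMSO.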

[15] = ACEA_AR_agonist_AUC_viability: ACEA Biosciences xCELLigence Real-Time Cell Analysis on Androgen Receptor Agonism for Viability (AID 2283775);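 on AC50: viability read 80 hours after compound addition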
In short: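 Read-out is area under the impedance curve at 80 h post-dose in 22Rv1 cells, with DMSO as baseline and signal loss taken as reduced viability. Compounds ran in duplicate from 100 uM final.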

[16] = target: Glucocorticoid receptor (Homo sapiens) (UniProt P04150); experiment: ATG_GR_TRANS: Attagene TRANS-FACTORIAL HepG2 Assay for human Glucocorticoid Receptor (GR) (AID 2282978); conditions: HepG2 Attagene TRANS GR reporter, mRNA transcription;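 further: activators score as hits since higher reporter transcript over DMSO is fitted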
In short: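 Measurement of GAL4-UAS-driven reporter mRNA in human HepG2 liver cells 24 h post-dosing, using RT-PCR with fluorescent labelling and capillary electrophoresis; the transfected constructs report exogenous NR-GAL4 chimera activity, fitted upward against DMSO.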

[17] = target: Cellular tumor antigen p53 (Homo sapiens) (UniProt P04637); experiment: TOX21_p53_BLA_p2_ratio: Tox21 HCT-116 p53 Agonism Beta-lactamase Assay, Ratio, Phase 2 (AID 2283592)
In short: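 HCT-116 cells with p53-responsive beta-lactamase reporter, 4000 cells/well, preincubated 5 h, then compound in DMSO (217-fold dilution) for 16 h at 37C. CCF4-AM substrate 2 h at room temperature; 460/530 nm emission ratio fitted upward versus DMSO.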

[18] = CCTE_Harrill_HTTr_CellCount_MCF7: CCTE's Cell Proliferation Assessment for the High-Throughput Transcriptomics (HTTr) Platform, Harrill Lab (AID 2284012);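 further: intended direction is loss of nuclei count meaning fewer cells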
In short: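 MCF-7 cells were exposed for 6 h to an eight-point dilution series; Hoechst-labeled nuclei were counted by high content imaging. Curves were fitted bidirectionally against DMSO as negative control and baseline, with signal loss indicating reduced cell count.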

Measured: AC50

Cc1cc(S(=O)(=O)O)ccc1N=Nc1c(O)ccc2ccccc12
inconclusive: [2] 100 µM | [5] 50 µM | [6] 46.1 µM | [7] 46.1 µM | [8] 50 µM
inactive: [1] | [3] | [4]

CC(=O)Nc1ccc(C)cc1C
inactive: [6]
inconclusive: [3] 55.5 µM | [9] 80.1 µM | [10] 0.000118 µM

Cc1c(C2(c3cc(Br)c(O)c(Br)c3C)OS(=O)(=O)c3ccccc32)cc(Br)c(O)c1Br
inactive: [16] | [11]
inconclusive: [1] 80.5 µM | [17] 37.1 µM | [6] 37.1 µM
active: [4] 13 µM

COc1cc(C(C)(C)C)c(O)c(C(C)(C)C)c1
inactive: [11]
inconclusive: [12] 5.55 µM | [8] 50 µM

Cc1ccc(S(=O)(=O)Oc2ccc(N=Nc3ccc(-c4ccc(N=Nc5c(O)ccc6cc(S(=O)(=O)O)cc(S(=O)(=O)O)c56)c(C)c4)cc3C)cc2)cc1
inconclusive: [2] 70 µM | [13] 70 µM | [10] 46.2 µM
inactive: [14] | [9] | [10] | [7]
active: [3] 18.3 µM | [5] 35 µM

CC(C)CC(=O)CC(C)C
inconclusive: [5] 20 µM | [9] 46.1 µM | [10] 46.5 µM | [15] 0.171 µM | [8] 0.148 µM | [18] 50 µM
inactive: [2] | [4] | [17] | [9]
